Measured values reported in the supplement of paper PMC12823440, “Inhibitors supercharge kinase turnover through native proteolytic circuits” (Nature, 2025).
The other results are listed elsewhere or left out. The calls rarely recur for the same compound in another form.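 In K562 cells expressing nanoluciferase-fused kinases, luminescence was recorded at 4 h intervals between 2 and 18 h, normalized as percent of control with DMSO at 100% and a positive control at 0%. A significant (2 sigma) signal drop marks a time point as decreased. The authors' rule for a hit is not shown and takes in more than the number of time points.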

The chains behind the UniProt entries cited, without tags or fusion partners. Where a name states a change or a piece, a line headed by the entry shows the natural chain unless it says otherwise.
UniProt P07949, whole entry, looked up: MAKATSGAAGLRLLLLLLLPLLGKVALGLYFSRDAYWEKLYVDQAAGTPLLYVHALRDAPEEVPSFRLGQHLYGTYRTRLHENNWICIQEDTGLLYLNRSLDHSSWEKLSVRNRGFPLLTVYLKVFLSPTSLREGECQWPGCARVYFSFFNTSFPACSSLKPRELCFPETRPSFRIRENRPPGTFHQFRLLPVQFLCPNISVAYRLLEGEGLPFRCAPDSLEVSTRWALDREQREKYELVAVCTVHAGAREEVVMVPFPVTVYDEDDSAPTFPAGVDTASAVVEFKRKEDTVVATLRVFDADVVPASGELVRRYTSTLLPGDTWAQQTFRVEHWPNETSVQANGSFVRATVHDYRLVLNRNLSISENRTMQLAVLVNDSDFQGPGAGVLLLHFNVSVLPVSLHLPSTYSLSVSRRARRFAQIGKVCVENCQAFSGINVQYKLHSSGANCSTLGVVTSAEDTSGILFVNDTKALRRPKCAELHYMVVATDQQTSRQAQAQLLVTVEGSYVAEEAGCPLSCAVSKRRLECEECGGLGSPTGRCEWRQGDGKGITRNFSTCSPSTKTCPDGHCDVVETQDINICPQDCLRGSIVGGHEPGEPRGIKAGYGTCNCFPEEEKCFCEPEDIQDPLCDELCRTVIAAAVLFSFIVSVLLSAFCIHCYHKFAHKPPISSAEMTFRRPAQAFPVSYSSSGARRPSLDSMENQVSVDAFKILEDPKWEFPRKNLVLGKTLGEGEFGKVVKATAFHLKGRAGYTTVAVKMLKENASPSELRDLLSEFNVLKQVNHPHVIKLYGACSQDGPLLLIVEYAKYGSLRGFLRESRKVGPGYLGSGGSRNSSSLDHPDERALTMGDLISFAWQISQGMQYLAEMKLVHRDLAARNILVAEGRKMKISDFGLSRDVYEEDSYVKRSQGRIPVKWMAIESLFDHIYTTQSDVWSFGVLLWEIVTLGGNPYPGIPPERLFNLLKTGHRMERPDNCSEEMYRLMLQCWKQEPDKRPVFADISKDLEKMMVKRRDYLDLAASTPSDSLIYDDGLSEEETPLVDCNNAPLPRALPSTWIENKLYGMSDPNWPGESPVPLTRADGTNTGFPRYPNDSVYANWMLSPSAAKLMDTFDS
UniProt P07949, whole entry M918T, looked up: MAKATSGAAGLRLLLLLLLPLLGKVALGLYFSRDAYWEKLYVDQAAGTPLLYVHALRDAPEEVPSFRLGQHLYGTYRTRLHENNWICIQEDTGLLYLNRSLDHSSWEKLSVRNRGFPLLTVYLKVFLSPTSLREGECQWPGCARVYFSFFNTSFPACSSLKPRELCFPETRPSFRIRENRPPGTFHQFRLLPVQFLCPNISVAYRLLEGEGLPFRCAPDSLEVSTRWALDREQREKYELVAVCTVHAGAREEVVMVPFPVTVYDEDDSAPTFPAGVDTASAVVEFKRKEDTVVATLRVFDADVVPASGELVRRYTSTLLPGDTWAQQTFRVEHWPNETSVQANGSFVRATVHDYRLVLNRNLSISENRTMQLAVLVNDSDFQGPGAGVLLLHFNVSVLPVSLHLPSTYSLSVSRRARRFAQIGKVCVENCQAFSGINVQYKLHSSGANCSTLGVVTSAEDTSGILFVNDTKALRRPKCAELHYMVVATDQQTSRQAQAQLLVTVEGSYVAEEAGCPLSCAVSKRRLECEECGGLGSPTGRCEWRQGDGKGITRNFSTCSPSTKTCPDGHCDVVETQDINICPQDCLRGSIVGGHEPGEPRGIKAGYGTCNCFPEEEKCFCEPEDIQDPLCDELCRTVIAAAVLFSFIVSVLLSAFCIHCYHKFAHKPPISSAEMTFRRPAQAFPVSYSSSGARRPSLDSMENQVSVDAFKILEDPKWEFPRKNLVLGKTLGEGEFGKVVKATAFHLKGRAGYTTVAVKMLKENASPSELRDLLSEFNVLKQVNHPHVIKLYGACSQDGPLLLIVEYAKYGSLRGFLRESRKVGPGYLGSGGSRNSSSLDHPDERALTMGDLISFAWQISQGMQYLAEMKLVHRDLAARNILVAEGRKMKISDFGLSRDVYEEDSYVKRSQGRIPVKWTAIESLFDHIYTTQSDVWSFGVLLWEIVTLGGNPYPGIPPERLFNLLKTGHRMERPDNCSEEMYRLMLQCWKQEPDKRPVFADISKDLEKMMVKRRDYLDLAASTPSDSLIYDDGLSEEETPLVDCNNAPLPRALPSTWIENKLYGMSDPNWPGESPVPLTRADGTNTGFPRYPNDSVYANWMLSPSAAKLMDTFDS
UniProt Q9BRS2: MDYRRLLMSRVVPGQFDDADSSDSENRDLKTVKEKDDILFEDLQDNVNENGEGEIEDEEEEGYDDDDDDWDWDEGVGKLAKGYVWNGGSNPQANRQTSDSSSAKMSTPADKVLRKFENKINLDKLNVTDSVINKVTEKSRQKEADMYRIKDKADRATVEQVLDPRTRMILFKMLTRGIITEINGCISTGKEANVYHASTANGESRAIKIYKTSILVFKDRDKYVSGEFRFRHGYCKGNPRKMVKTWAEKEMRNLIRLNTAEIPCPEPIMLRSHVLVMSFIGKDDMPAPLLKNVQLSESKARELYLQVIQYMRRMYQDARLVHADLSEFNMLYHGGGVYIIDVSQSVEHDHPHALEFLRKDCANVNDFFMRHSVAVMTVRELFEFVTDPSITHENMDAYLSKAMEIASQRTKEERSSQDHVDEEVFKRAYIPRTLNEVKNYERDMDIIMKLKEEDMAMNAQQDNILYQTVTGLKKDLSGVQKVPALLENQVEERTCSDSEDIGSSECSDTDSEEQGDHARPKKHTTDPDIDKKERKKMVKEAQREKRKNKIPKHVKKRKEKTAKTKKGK
UniProt Q13546: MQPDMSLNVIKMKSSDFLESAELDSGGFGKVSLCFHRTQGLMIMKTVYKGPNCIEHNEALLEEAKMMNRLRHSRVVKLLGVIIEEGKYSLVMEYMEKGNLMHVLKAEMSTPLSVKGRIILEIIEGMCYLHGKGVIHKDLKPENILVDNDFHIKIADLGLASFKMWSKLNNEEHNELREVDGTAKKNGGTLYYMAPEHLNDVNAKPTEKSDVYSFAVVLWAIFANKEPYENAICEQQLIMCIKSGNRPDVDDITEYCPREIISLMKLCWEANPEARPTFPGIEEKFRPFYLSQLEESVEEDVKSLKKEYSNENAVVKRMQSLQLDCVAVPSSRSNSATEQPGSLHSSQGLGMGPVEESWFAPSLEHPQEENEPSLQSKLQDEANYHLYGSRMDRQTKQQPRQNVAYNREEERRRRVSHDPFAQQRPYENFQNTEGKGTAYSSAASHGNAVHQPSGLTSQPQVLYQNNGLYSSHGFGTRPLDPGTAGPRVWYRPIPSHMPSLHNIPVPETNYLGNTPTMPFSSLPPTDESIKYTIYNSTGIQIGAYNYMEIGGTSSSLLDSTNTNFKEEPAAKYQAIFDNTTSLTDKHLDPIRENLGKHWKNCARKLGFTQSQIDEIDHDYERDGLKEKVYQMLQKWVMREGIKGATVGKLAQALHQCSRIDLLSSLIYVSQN
UniProt Q01974, whole entry: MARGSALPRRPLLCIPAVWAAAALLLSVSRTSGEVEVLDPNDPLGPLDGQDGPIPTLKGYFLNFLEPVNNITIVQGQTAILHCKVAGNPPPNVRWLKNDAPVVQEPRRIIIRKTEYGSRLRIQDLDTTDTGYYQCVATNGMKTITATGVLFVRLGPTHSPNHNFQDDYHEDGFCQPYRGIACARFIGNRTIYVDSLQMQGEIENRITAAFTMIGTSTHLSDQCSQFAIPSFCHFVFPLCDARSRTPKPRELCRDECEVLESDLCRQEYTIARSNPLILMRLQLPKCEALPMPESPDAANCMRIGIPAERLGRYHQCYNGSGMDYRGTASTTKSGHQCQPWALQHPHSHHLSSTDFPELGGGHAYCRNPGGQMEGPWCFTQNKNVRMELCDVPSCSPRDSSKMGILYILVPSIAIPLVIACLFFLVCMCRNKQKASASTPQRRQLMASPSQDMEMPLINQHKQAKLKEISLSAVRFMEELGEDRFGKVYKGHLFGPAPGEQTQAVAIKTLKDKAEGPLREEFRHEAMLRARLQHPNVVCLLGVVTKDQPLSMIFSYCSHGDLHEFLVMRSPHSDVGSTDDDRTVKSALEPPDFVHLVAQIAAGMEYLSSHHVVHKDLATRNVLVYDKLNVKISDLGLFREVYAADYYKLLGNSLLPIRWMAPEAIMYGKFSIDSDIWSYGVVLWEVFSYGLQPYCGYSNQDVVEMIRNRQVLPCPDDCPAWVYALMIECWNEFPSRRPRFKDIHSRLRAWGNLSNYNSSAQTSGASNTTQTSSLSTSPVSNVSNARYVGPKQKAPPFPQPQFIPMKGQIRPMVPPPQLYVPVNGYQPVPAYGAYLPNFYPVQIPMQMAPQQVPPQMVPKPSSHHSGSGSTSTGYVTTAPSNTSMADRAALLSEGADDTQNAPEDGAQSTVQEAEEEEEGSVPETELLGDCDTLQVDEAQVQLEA
UniProt Q15418, whole entry: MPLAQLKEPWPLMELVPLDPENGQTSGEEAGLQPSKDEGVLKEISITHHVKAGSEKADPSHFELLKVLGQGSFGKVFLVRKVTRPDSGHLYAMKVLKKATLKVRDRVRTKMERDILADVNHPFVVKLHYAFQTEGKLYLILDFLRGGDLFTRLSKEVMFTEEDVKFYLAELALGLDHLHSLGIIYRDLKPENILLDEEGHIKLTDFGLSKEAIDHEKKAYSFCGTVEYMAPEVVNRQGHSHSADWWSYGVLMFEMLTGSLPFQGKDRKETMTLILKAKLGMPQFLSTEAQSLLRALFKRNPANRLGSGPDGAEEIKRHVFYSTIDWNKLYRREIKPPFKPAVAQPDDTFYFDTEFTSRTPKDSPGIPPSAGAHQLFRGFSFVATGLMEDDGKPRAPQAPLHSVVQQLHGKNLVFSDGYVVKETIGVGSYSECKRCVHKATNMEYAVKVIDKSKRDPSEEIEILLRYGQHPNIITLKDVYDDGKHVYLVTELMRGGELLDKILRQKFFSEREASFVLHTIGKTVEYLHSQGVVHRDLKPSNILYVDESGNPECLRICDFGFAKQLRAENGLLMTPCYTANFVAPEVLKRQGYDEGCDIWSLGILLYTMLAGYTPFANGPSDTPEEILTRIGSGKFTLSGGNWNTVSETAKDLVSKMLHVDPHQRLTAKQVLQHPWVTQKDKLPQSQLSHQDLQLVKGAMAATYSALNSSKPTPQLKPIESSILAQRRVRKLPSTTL
UniProt Q9NYA1, whole entry: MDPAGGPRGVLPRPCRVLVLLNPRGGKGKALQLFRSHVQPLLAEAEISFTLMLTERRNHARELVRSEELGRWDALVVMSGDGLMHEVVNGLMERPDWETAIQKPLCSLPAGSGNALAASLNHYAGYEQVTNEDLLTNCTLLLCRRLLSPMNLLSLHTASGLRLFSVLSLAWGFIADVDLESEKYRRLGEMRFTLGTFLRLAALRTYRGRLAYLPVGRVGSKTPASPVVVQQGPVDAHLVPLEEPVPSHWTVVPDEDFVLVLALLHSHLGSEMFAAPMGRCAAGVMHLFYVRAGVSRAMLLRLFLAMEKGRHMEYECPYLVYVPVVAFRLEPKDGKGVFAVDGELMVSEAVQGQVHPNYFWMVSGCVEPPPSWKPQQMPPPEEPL
UniProt Q9Y6E0: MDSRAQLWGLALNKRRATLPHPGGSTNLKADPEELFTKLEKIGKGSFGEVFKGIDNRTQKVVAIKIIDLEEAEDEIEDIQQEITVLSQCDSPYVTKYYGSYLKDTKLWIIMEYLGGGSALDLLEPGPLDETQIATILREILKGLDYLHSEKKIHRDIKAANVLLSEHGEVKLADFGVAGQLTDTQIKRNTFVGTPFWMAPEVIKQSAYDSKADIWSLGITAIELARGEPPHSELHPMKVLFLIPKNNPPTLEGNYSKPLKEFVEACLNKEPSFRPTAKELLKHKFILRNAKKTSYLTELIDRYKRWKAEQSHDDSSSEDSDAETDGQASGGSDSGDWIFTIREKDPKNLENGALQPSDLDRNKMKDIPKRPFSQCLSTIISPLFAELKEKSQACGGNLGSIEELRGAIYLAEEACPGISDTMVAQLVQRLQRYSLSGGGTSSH

Assays:
Assay in all cases: kinase-Nluc reporter destabilization hit call (1 = scored as downregulated) (binary); higher = compound decreases kinase abundance
Settings in all cases: K562; 2-18 h
[1] = target: RET (UniProt P07949)
[2] = target: RET_M918T (clone: RET_mut) (UniProt P07949)
[3] = target: RIOK1 (UniProt Q9BRS2)
[4] = target: RIPK1 (UniProt Q13546)
[5] = target: RIPK2 (UniProt O43353)
[6] = target: ROR2 (UniProt Q01974)
[7] = target: RPS6KA1 (UniProt Q15418)
[8] = target: SPHK1 (UniProt Q9NYA1)
[9] = target: SRC (UniProt P12931)
[10] = target: STK24 (UniProt Q9Y6E0)

Compound	kinase-Nluc reporter destabilization hit call [1]	kinase-Nluc reporter destabilization hit call [2]	kinase-Nluc reporter destabilization hit call [3]	kinase-Nluc reporter destabilization hit call [4]	kinase-Nluc reporter destabilization hit call [5]	kinase-Nluc reporter destabilization hit call [6]	kinase-Nluc reporter destabilization hit call [7]	kinase-Nluc reporter destabilization hit call [8]	kinase-Nluc reporter destabilization hit call [9]	kinase-Nluc reporter destabilization hit call [10]
CC(C)CCNC(=O)c1ccc2c(c1)nc(Nc1n[nH]c3ccc(-c4ccccc4OC(F)(F)F)cc13)n2C1CCC(O)CC1 (stereo not drawn) [IRAK inhibitor 4 (trans)] (10 µM)	inactive: 0	inactive: 0	inactive: 0	inactive: 0	inactive: 0	inactive: 0	inactive: 0	inactive: 0	inactive: 0	inactive: 0
NC(=O)c1cnc2[nH]ccc2c1N[C@@H]1[C@@H]2CC3C[C@H]1C[C@@](O)(C3)C2 [Peficitinib] (10 µM)	inactive: 0	inactive: 0	inactive: 0	inactive: 0	inactive: 0	inactive: 0	inactive: 0	inactive: 0	inactive: 0	inactive: 0
O[C@@H]1CO[C@H]2[C@@H]1OC[C@H]2Oc1nc2nc(-c3ccc(-c4ccccc4)cc3)c(Cl)cc2[nH]1 (10 µM)	inactive: 0	inactive: 0	inactive: 0	inactive: 0	inactive: 0	inactive: 0	inactive: 0	inactive: 0	inactive: 0	inactive: 0
NC(=S)n1[nH]c(-c2ccc([N+](=O)[O-])cc2)c(N=Nc2cccc(Cl)c2)c1=O (2.5 µM)	inactive: 0	inactive: 0	inactive: 0	inactive: 0	inactive: 0	inactive: 0	inactive: 0	inactive: 0	inactive: 0	inactive: 0
Cc1cnc(-c2ccc(-c3ccc(NC(=O)Nc4cccc(C(F)(F)F)c4)cc3F)c3c2C(=O)NC3)[nH]1 (10 µM)	inactive: 0	inactive: 0	inactive: 0	inactive: 0	inactive: 0	inactive: 0	inactive: 0	inactive: 0	inactive: 0	inactive: 0
FC(F)(F)c1ccc(/C=C/c2nc(COc3ccc(CCCCn4ccnn4)cc3)co2)cc1 [Mubritinib] (10 µM)	inactive: 0	inactive: 0	inactive: 0	inactive: 0	inactive: 0	inactive: 0	inactive: 0	inactive: 0	inactive: 0	inactive: 0
C=CC(=O)N1C[C@H](COc2nc(Nc3cnn(C)c3)nc3[nH]cc(Cl)c23)[C@@H](OC)C1 (2.5 µM)	inactive: 0	inactive: 0	inactive: 0	inactive: 0	inactive: 0	inactive: 0	inactive: 0	inactive: 0	inactive: 0	inactive: 0
COc1ccc(N=Nc2c(N)n[nH]c2N)cc1 (10 µM)	inactive: 0	inactive: 0	inactive: 0	inactive: 0	inactive: 0	inactive: 0	inactive: 0	inactive: 0	inactive: 0	inactive: 0
O=[N+]([O-])c1ccc2c(c1)S(=O)(=O)C=C2 [Stattic] (2.5 µM)	inactive: 0	inactive: 0	inactive: 0	inactive: 0	inactive: 0	inactive: 0	inactive: 0	inactive: 0	inactive: 0	inactive: 0
O=C(O)c1cccc(CN2C(=O)/C(=C(\c3ccccc3)c3ccc(Cl)cc3)c3ccccc32)c1 (2.5 µM)	inactive: 0	inactive: 0	inactive: 0	inactive: 0	inactive: 0	inactive: 0	inactive: 0	inactive: 0	inactive: 0	inactive: 0
COc1ccc2cc3[n+](cc2c1OC)CCc1cc(O)c(O)cc1-3 [Demethyleneberberine] (10 µM)	inactive: 0	inactive: 0	inactive: 0	inactive: 0	inactive: 0	inactive: 0	inactive: 0	inactive: 0	inactive: 0	inactive: 0
Cn1ncc2cc(-c3cnc(N)c(Cl)c3N3CCC4(CCNC4=O)CC3)ccc21 (10 µM)	inactive: 0	inactive: 0	inactive: 0	inactive: 0	inactive: 0	inactive: 0	inactive: 0	inactive: 0	inactive: 0	inactive: 0
NC1=NCCN1CC(=O)O [Cyclocreatine] (10 µM)	inactive: 0	inactive: 0	inactive: 0	inactive: 0	inactive: 0	inactive: 0	inactive: 0	inactive: 0	inactive: 0	inactive: 0
O=C1NC(=Nc2c(Cl)cccc2Cl)S/C1=C\c1ccc2nccnc2c1 (2.5 µM)	inactive: 0	inactive: 0	inactive: 0	inactive: 0	inactive: 0	inactive: 0	inactive: 0	inactive: 0	inactive: 0	inactive: 0
CNC(=O)c1ccccc1Oc1nc(Nc2cc(OC)c(OC)c(OC)c2)ncc1Br (2.5 µM)	inactive: 0	inactive: 0	inactive: 0	inactive: 0	inactive: 0	inactive: 0	inactive: 0	inactive: 0	inactive: 0	inactive: 0
Cc1cc(C)nc(NS(=O)(=O)c2ccc(NC(=S)NC(=O)COc3ccc(Br)cc3Cl)cc2)n1 (2.5 µM)	inactive: 0	inactive: 0	inactive: 0	inactive: 0	inactive: 0	inactive: 0	inactive: 0	inactive: 0	inactive: 0	inactive: 0
Cc1cc(Nc2nc(CC3(C(=O)O)CCN(C(=O)c4cccc(Cl)c4Cl)CC3)ccc2F)n[nH]1 (10 µM)	inactive: 0	inactive: 0	inactive: 0	inactive: 0	inactive: 0	inactive: 0	inactive: 0	inactive: 0	inactive: 0	inactive: 0
Cc1cc(Nc2ncnc3ccc(-c4ccc(CNCCS(C)(=O)=O)o4)cc23)ccc1Oc1ccn2ncnc2c1 [ARRY-380 (analog )] (2.5 µM)	inactive: 0	inactive: 0	inactive: 0	inactive: 0	inactive: 0	inactive: 0	inactive: 0	inactive: 0	inactive: 0	inactive: 0
O=c1cc(-c2cccc3c2Sc2ccccc2S3)oc(N2CCOCC2)c1 (10 µM)	inactive: 0	inactive: 0	inactive: 0	inactive: 0	inactive: 0	inactive: 0	inactive: 0	inactive: 0	inactive: 0	inactive: 0
C=CC(=O)Nc1cccc(CNc2nc(Nc3ccc(N4CCN(C)CC4)cc3OC)ncc2Cl)c1 (10 µM)	inactive: 0	inactive: 0	inactive: 0	inactive: 0	inactive: 0	inactive: 0	inactive: 0	inactive: 0	inactive: 0	inactive: 0
C[C@@H]1O[C@@H](O[C@@H]2[C@@H](O)[C@H](OCCc3ccc(O)c(O)c3)O[C@H](CO)[C@H]2OC(=O)/C=C/c2ccc(O)c(O)c2)[C@H](O)[C@H](O)[C@H]1O [Verbascoside] (10 µM)	inactive: 0	inactive: 0	inactive: 0	inactive: 0	inactive: 0	inactive: 0	inactive: 0	inactive: 0	inactive: 0	inactive: 0
O=C(N[C@@H](C1CC1)C(F)(F)F)c1cc(-c2cnn3cc(-c4ccc(F)cc4)cnc23)cs1 (10 µM)	inactive: 0	inactive: 0	inactive: 0	inactive: 0	inactive: 0	inactive: 0	inactive: 0	inactive: 0	inactive: 0	inactive: 0
N#Cc1c2nc3ccccc3nc2n2ccc(NC(=O)c3cccs3)cc12 (10 µM)	inactive: 0	inactive: 0	inactive: 0	inactive: 0	inactive: 0	inactive: 0	inactive: 0	inactive: 0	inactive: 0	inactive: 0
CCc1ccc(OCC(=O)Nc2ccc(F)c([N+](=O)[O-])c2)cc1 (10 µM)	inactive: 0	inactive: 0	inactive: 0	inactive: 0	inactive: 0	inactive: 0	inactive: 0	inactive: 0	inactive: 0	inactive: 0
O=C1O[C@H]([C@@H](O)CO)C(O)=C1OP(=O)(O)O [2-Phospho-L-ascorbic acid (trisodium)] (10 µM)	inactive: 0	inactive: 0	inactive: 0	inactive: 0	inactive: 0	inactive: 0	inactive: 0	inactive: 0	inactive: 0	inactive: 0
COc1cc(/C=C/C(=O)N2CCC=CC2=O)cc(OC)c1OC [Piperlongumine] (2.5 µM)	inactive: 0	inactive: 0	inactive: 0	active: 1	inactive: 0	inactive: 0	inactive: 0	inactive: 0	inactive: 0	inactive: 0
CCn1c(=O)c(-c2cc[nH]n2)cc2c(C)nc(N)nc21 [Voxtalisib] (10 µM)	inactive: 0	inactive: 0	inactive: 0	inactive: 0	inactive: 0	inactive: 0	inactive: 0	inactive: 0	inactive: 0	inactive: 0
CC(C)=CC(=O)O[C@H]1Cc2cc3ccc(=O)oc3cc2OC1(C)C [Decursin] (10 µM)	inactive: 0	inactive: 0	inactive: 0	inactive: 0	inactive: 0	inactive: 0	inactive: 0	inactive: 0	inactive: 0	inactive: 0
Nc1ncnc2c1c(COc1cccc(Cl)c1)nn2C1CCOCC1 (10 µM)	inactive: 0	inactive: 0	inactive: 0	inactive: 0	inactive: 0	inactive: 0	inactive: 0	inactive: 0	inactive: 0	inactive: 0
Cn1cc(C2=C(c3cn(CCCSC(=N)N)c4ccccc34)C(=O)NC2=O)c2ccccc21 [Ro 31-8220 (mesylate)] (2.5 µM)	inactive: 0	inactive: 0	inactive: 0	inactive: 0	inactive: 0	inactive: 0	inactive: 0	inactive: 0	inactive: 0	inactive: 0

Two entries from above, as a markdown table.

| Compound | kinase-Nluc reporter destabilization hit call [1] | kinase-Nluc reporter destabilization hit call [2] | kinase-Nluc reporter destabilization hit call [3] | kinase-Nluc reporter destabilization hit call [4] | kinase-Nluc reporter destabilization hit call [5] | kinase-Nluc reporter destabilization hit call [6] | kinase-Nluc reporter destabilization hit call [7] | kinase-Nluc reporter destabilization hit call [8] | kinase-Nluc reporter destabilization hit call [9] | kinase-Nluc reporter destabilization hit call [10] |
| --- | --- | --- | --- | --- | --- | --- | --- | --- | --- | --- |
| C[C@@H]1O[C@@H](O[C@@H]2[C@@H](O)[C@H](OCCc3ccc(O)c(O)c3)O[C@H](CO)[C@H]2OC(=O)/C=C/c2ccc(O)c(O)c2)[C@H](O)[C@H](O)[C@H]1O [Verbascoside] (10 µM) | inactive: 0 | inactive: 0 | inactive: 0 | inactive: 0 | inactive: 0 | inactive: 0 | inactive: 0 | inactive: 0 | inactive: 0 | inactive: 0 |
| O=C1O[C@H]([C@@H](O)CO)C(O)=C1OP(=O)(O)O [2-Phospho-L-ascorbic acid (trisodium)] (10 µM) | inactive: 0 | inactive: 0 | inactive: 0 | inactive: 0 | inactive: 0 | inactive: 0 | inactive: 0 | inactive: 0 | inactive: 0 | inactive: 0 |
